Data on one molecule can be found in publication PMC8981563 (RSC Advances, 2022).

For data set [1] the following is noted: rats; cited from earlier work.
The nature of a further data set: in vivo. Particulars: male, C57BL/6, mouse, po, 10 mg/kg.

Turning to `Cc1ccc(-c2ccc(F)cc2COc2ccc(CCC(=O)O)cc2)cc1` [TUG-891], in data set [1], the plasma clearance entry is “high plasma clearance”. In “in vivo”, the AUC is 1500 ± 87 ng·h/mL, the AUC(0-t) worked out at 1500 ng·h/mL and the half-life is 37.2 ± 8.4 min.
